The source of these data is publication PMC4108472, “Characterization of a Novel BCHE “Silent” Allele: Point Mutation (p.Val204Asp) Causes Loss of Activity and Prolonged Apnea with Suxamethonium” (PLoS ONE, 2014).

By UniProt entry, the sequences of proteins in these tests, tags left out. Residues count along the entry.
UniProt P02768, residues 25-609: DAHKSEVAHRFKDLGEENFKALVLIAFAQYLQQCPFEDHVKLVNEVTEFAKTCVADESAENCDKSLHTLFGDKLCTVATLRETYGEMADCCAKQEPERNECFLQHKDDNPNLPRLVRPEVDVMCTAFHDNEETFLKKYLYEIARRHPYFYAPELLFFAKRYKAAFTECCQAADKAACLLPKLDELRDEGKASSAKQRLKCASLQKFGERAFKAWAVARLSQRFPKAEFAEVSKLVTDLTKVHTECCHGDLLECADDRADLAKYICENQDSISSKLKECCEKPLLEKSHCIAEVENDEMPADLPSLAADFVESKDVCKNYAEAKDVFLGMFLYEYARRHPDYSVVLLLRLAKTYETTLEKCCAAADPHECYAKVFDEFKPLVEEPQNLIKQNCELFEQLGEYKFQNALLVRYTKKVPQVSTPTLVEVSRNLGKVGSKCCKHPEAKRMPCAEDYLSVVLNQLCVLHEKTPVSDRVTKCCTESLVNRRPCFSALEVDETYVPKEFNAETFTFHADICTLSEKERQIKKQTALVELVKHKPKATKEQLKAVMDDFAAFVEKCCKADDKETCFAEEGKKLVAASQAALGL
UniProt P06276, residues 29-602: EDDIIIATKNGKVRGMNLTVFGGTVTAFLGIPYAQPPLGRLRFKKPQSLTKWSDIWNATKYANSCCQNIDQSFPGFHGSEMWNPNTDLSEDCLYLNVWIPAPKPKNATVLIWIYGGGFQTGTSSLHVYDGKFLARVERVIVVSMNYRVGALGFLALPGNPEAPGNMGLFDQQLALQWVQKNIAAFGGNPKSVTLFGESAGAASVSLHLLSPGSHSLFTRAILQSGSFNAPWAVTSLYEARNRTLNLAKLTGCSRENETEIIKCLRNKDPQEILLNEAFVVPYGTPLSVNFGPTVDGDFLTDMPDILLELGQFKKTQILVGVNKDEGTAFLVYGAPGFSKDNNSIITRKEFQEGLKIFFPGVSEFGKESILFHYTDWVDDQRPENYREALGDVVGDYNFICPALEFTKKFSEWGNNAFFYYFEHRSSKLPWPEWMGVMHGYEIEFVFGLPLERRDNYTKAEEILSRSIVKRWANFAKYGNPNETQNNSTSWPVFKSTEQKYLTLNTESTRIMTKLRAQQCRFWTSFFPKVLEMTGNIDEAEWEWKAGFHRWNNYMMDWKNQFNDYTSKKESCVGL

The assay deals with albumin of human plasma (human (endogenous in plasma)) (UniProt P02768). In words: native gel or EMSA; nondenaturing gradient gel (4–30%) of plasma samples (5 µL/lane), bands stained for BChE activity with BTC as the substrate.

These are yes or no findings as the source states them, for the method shown. Some entries that bind do so weakly or less than the wild type.

As for “Butyrylcholinesterase (usual, wild-type) of human plasma (from UniProt P06276 29-602) (enzyme)”, the binding entry is recorded as “binds”.
